Results are given in words; binding and its absence hold for the method and conditions named. Binding seen in cells or lysates may run through a third protein. Some entries that bind do so weakly or less than the wild type.

Amino acid sequences for entries named in this document (tags omitted).
UniProt P63159: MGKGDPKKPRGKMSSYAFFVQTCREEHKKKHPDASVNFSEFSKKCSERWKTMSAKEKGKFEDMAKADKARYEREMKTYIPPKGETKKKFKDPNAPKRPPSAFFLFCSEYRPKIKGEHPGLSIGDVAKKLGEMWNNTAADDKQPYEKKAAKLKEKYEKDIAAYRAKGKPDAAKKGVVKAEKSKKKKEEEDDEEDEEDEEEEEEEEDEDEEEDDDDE
UniProt P18757: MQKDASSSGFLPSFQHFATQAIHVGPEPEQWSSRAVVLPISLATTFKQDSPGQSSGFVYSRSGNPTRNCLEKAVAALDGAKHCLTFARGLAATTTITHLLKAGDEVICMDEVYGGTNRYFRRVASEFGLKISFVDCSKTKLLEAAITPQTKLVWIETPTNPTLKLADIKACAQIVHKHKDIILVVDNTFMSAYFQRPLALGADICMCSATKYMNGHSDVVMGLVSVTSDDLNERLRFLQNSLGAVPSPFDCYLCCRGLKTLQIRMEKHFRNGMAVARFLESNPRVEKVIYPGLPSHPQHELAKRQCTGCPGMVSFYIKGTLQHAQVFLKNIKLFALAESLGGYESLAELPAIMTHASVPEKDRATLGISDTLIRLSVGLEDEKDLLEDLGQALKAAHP

Among the data in paper PMC5297800 are binding values, retold here.

The target of the test is High-mobility group box 1 (cytoplasmic) (rat (endogenous in Lewis rat liver)) (UniProt P63159). Put plainly: co-IP; co-IP of rat liver cytoplasmic extracts (WI/R and normal) with anti-HMGB1 (N-terminal) or anti-HMGB1 (C-terminal), rabbit IgG as control antibody; eluates probed by Western blot for the candidate proteins. In general terms: A western blot detects proteins with antibodies after separation by electrophoresis.

For the molecule “Cystathionine γ-lyase (from UniProt P18757 1-398) (enzyme)”, the binding result is on record as “binds”.

B1: Betaine-homocysteine S-methyltransferase 1 (enzyme, UniProt O09171 1-407)
chain: MAPIAGKKAKRGILERLNAGEVVIGDGGFVFALEKRGYVKAGPWTPEAAVEHPEAVRQLHREFLRAGSNVMQTFTFYASEDKLENRGNYVAEKISGQKVNEAACDIARQVADEGDALVAGGVSQTPSYLSCKSETEVKKIFHQQLEVFMKKNVDFLIAEYFEHVEEAVWAVEALKTSGKPIAATMCIGPEGDLHGVSPGECAVRLVKAGAAIVGVNCHFDPSTSLQTIKLMKEGLEAARLKAYLMSHALAYHTPDCGKQGFIDLPEFPFGLEPRVATRWDIQKYAREAYNLGVRYIGGCCGFEPYHIRAIAEELAPERGFLPPASEKHGSWGSGLDMHTKPWIRARARKEYWQNLRIASGRPYNPSMSKPDAWGVTKGAAELMQQKEATTEQQLRALFEKQKFKSAQ
As to B1, the binding result is “binds”.
